PubChem BioAssay AID485314 (National Center for Advancing Translational Sciences (NCATS), 2010)
The whole screen tested about 340,000 compounds, of which about 4,500 (1.3%) were called active. Inconclusive means that the source gave no clear call. Such entries were picked first, then a sample of the others. Calls follow the shape of the dose curve; as a rule, active = well fitted inhibition curve with a large enough effect; inconclusive = small, poorly fitted or top-dose-only effect, or another doubt; inactive = no such curve, though single readings can be large or run the other way. Potencies of inconclusive entries are doubtful fits and often do not repeat.

What follows are compounds tested against DNA polymerase beta (Homo sapiens) (UniProt P06746) (assay: qHTS Assay for Inhibitors of DNA Polymerase Beta). Details: Pol beta primer extension/strand displacement, fluorescence kinetic; activity change, negative = inhibition: at 114 µM (top of the series).
Procedure, shortened: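 Values derive from four-parameter Hill fits of normalized kinetic data: reads at 0 and 10 min following addition of 50 nM substrate to 10 nM Pol beta preincubated 15 min with compound.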
% is scaled to controls: 0 for no effect and ±100 for the full control effect; potency is read from the fitted curve at half-maximal effect.

Row | Structure (SMILES) | Potency | activity change, negative = inhibition
1 | O=C(Cn1c(=S)nc2ccccn21)N1CCc2ccccc2C1 | inconclusive: 89.1 µM [inhibitor, single point] | 
2 | Cc1cc2nc(-c3ccc(SCC(=O)Nc4ccc5c(c4)OCCO5)nc3)[nH]c2cc1C | inconclusive: 100 µM [inhibitor, single point] | 
3 | CCn1c(C)nc2cc(C(=O)N/N=C/c3ccc(OC)c(O)c3)ccc21 | inconclusive: 70.8 µM [inhibitor, single point] | 
4 | CCC(=O)NCCC(c1ccco1)c1ccccc1OC (stereo not given) | inconclusive: 28.2 µM [inhibitor, single point] | 
5 | Cc1nnc(SCC2=C(C(=O)O)N3C(=O)C(NC(=O)C(C)n4nc(C(F)(F)F)cc4C)C3SC2)s1 (stereo not given) | active: 17.8 µM | 
6 | Cc1nc2c(sc3nc4c(cc32)COC(C)(C)C4)c(=O)n1CC(=O)NCc1ccco1 | inconclusive: 8.91 µM [inhibitor, full curve] | 
7 | COc1ccc(/C=C(/C(=O)Nc2ccccc2C(=O)NC(C)C)c2ccccc2)cc1 | inconclusive: 4.47 µM [inhibitor, full curve, poor fit] | 
8 | O=C(Nc1cccc(-c2cnc3ccccc3n2)c1)c1cccc(NC(=O)c2ccco2)c1 | inconclusive: 10 µM [inhibitor, full curve] | 
9 | COCc1[nH][nH]c(=O)c1C=Nc1ccc(Oc2ccccc2)cc1 | inconclusive: 89.1 µM [inhibitor, single point] | 
10 | O=C(N/N=C/c1ccccc1F)c1cc2c(ccc3ccccc32)o1 |  | inconclusive: -57.3% [inhibitor]
11 | Cc1cccc(C)c1NC(=O)C(NS(=O)(=O)c1ccc2c(c1)CCC(=O)N2)c1ccccc1 (stereo not given) | inconclusive: 25.1 µM [inhibitor, single point] | 
12 | CCCCN(CCCC)S(=O)(=O)c1ccc(NC(=O)c2cccs2)cc1 | inconclusive: 0.282 µM [inhibitor, full curve] | 
13 | O=C(CN1CCCCC1)n1c2ccccc2c2ccccc21 | inconclusive: 20 µM [inhibitor, partial curve] | 
14 | CCN1CC(CN(C)Cc2cn(-c3ccc(C)cc3)nc2-c2cccc(C)c2)CC1=O (stereo not given) | inconclusive: 1.78 µM [inhibitor, full curve] | 
15 | CCOc1ccc(CCNC(=O)c2sc3nc4n(c(=O)c3c2C)CCCC4)cc1OCC | inconclusive: 79.4 µM [inhibitor, single point] | 
16 | NC(=O)[C@H]1CC2(CC(c3cccc(NC(=O)[C@H]4CCC(=O)N4)c3)=NO2)CN1C(=O)CC(c1ccccc1)c1ccccc1 (stereo not given in full) | inconclusive: 89.1 µM [inhibitor, single point] | 
17 | CCOc1ccccc1N1CCN(Cc2cn[nH]c2-c2ccc(F)cc2)CC1 | inconclusive: 25.1 µM [inhibitor, single point] | 
18 | O=C(CSc1ccncc1)Nc1ccc(S(=O)(=O)Nc2nccs2)cc1 | inactive | 
19 | CCN(CC)c1ccc(NS(=O)(=O)c2ccc(-c3cnc(C4CC4)o3)cc2)c(C)c1 | inconclusive: 89.1 µM [inhibitor, single point] | 
20 | CC(=O)N1CCN=C1SCc1ccc(C)cc1 | inconclusive: 2 µM [inhibitor, single point] | 
21 | COc1ccccc1/C=c1\sc2nc(-c3ccco3)nn2c1=O | active: 10 µM | 
22 | COc1cc(/C=C/C(=O)c2ccc(NS(=O)(=O)c3ccc(C)cc3)cc2)ccc1OC(F)F | inactive | 

Full records, looked up by structure:
`CCOc1ccc(CCNC(=O)c2sc3nc4n(c(=O)c3c2C)CCCC4)cc1OCC` is listed with Potency: inconclusive: 79.4 µM [inhibitor, single point]
`COc1ccc(/C=C(/C(=O)Nc2ccccc2C(=O)NC(C)C)c2ccccc2)cc1` is listed with Potency: inconclusive: 4.47 µM [inhibitor, full curve, poor fit]
`COCc1[nH][nH]c(=O)c1C=Nc1ccc(Oc2ccccc2)cc1` is listed with Potency: inconclusive: 89.1 µM [inhibitor, single point]
`Cc1nc2c(sc3nc4c(cc32)COC(C)(C)C4)c(=O)n1CC(=O)NCc1ccco1` is listed with Potency: inconclusive: 8.91 µM [inhibitor, full curve]

Further compounds:

Row | Structure (SMILES) | Potency | activity change, negative = inhibition
23 | Cc1ccc(-c2nc3scc(CCNC(=O)Cc4ccc(Cl)cc4)n3n2)cc1 | inactive | 
24 | COc1ccc(-c2nnn(CC(=O)N(c3cccc(O)c3)C(C)C(=O)NC3CCCC3)n2)cc1OC (stereo not given) | inconclusive: 25.1 µM [inhibitor, full curve] | 
25 | CCS(=O)(=O)N1Cc2ccccc2CC1C(=O)Nc1nnc(SCc2ccc(C#N)cc2)s1 (stereo not given) | active: 10 µM | 
26 | O=C(CSc1nnc(COc2ccc(Cl)cc2)n1Cc1ccco1)c1ccccc1F | inconclusive: 79.4 µM [inhibitor, single point] | 
27 | O=c1cnnc(Nc2ccc(F)cc2)[nH]1 | inconclusive: 31.6 µM [inhibitor, single point] | 
28 | CCOC(=O)c1cc2c(=O)n3ccccc3nc2n(Cc2ccco2)c1=NC(=O)c1cccnc1 | active: 17.8 µM | 
29 | COc1ccccc1OCCC(=O)OCC(=O)Nc1cc(S(=O)(=O)N2CCOCC2)ccc1Cl | inconclusive: 0.158 µM [inhibitor, full curve, poor fit] | 
30 | COC(=O)c1scc(-c2ccc(C)cc2)c1S(=O)(=O)Nc1cc(Cl)ccc1C | inconclusive: 79.4 µM [inhibitor, single point] | 
31 | Cc1ccc(C(=O)N/N=C2\CCc3ccccc32)c(C)c1 | active: 0.158 µM | 
32 | CCC(C(=O)Nc1nc(C)c(C(=O)OC)s1)c1ccccc1 (stereo not given) | inconclusive: 8.91 µM [inhibitor, full curve, poor fit] | 
33 | CC(=O)O[C@@H]1[C@H]2[C@@H](C[C@@H](C)[C@@H]3C=CC(=O)[C@@]13C)OC(=O)[C@@H]2C | inactive | 
34 | O=C(CNC(=O)c1ccccc1)N/N=C/c1cccs1 | inconclusive: 79.4 µM [inhibitor, partial curve] | 
35 | Cc1cc(C)cc(NC(=O)CSc2nc3c(oc4ccccc43)c(=O)n2-c2ccccc2F)c1 | inactive | 
36 | COc1cc(/C=N/NC(=O)c2cncc(Br)c2)cc([N+](=O)[O-])c1O | inactive | 
37 | Cc1ccc(Cn2nnnc2CN2CCC(O)(c3cccnc3)CC2)cc1 | inconclusive: 89.1 µM [inhibitor, single point] | 
38 | COc1ccc2cc3cc(C(=O)NCc4ccc(C)cc4)oc3nc2c1 | inactive | 
39 | O=C(CN1CCN(S(=O)(=O)c2ccc(Cl)cc2)CC1)Nc1ccc(N2CCOCC2)cc1 | inconclusive: 0.891 µM [inhibitor, full curve, poor fit] | 
40 | CC(C)(C)OC(=O)NCCCCCNC(=O)c1[nH]cnc1C(=O)N[C@@H](Cc1ccccc1)C(=O)OCc1ccccc1 | inconclusive: 39.8 µM [inhibitor, single point] | 
41 | COc1ccc(F)cc1S(=O)(=O)NCCc1c(C)[nH]c2c(Cl)cccc12 | inconclusive: 0.141 µM [inhibitor, full curve, poor fit] | 
42 | COc1ccc(NC(=O)Cn2nnc3sc4c(c3c2=O)CCC(C)C4)c(OC)c1 (stereo not given) | inconclusive: 8.91 µM [inhibitor, full curve, poor fit] | 
43 | Cc1ncc(CN2CCC(C(=O)Nc3cccc(-c4cscn4)c3)CC2)cn1 | inactive | 
44 | COc1cc(C(=O)Oc2cccc(C=O)c2)cc(OC)c1OC | inconclusive: 89.1 µM [inhibitor, single point] | 

Row | Structure (SMILES) | Potency | activity change, negative = inhibition
45 | CCCS(=O)(=O)N1CCCC(C(=O)Oc2ccc(OC)cc2)C1 (stereo not given) | inactive | 
46 | CCn1c(=O)c2cc(C(=O)N(CCN(C)C)Cc3ccccc3)sc2c2ccccc21 | inconclusive: 63.1 µM [inhibitor, partial curve, poor fit] | 
47 | N#CCC(=O)N/N=C/c1ccc(Sc2nc3ccccc3s2)o1 | inconclusive: 0.1 µM [inhibitor, partial curve, poor fit] | 
48 | Cn1c(-c2ccccc2)cc(=O)c2ccccc21 | inactive | 
49 | CC1CC(C)CN(C(=O)c2cccc(S(=O)(=O)Nc3cc(C(F)(F)F)ccc3Cl)c2)C1 (stereo not given) | active: 56.2 µM | 
50 | COc1cc(-c2noc(-c3ccc(NCc4ccccc4)c([N+](=O)[O-])c3)n2)cc(OC)c1OC | active: 44.7 µM | 
51 | C/C(=N\NC(=O)CC#N)c1cc2ccc(O)cc2oc1=O | inconclusive: 63.1 µM [inhibitor, partial curve, poor fit] | 
52 | Cc1ccc(NC(=O)Nc2ccon2)cc1 | inconclusive: 89.1 µM [inhibitor, single point] | 
53 | O=C(O)CCc1ccc(-c2cccs2)o1 | inactive | 
54 | Cc1ccc(CNS(=O)(=O)/C=C/c2ccc3c(c2)OCO3)cc1 | inconclusive: 79.4 µM [inhibitor, single point] | 
55 | C=CCN1C(=O)C(C)(C)N(C(=O)c2cccc([N+](=O)[O-])c2)c2ccccc21 | inconclusive: 14.1 µM [inhibitor, partial curve] | 
56 | Cc1nc2nc(-c3ccccc3)[nH]n2c(=O)c1Cc1ccccc1 | inconclusive: 89.1 µM [inhibitor, single point] | 
57 | Cc1ccc(NC(=O)C2Cc3ccccc3CN2C(=O)c2ccco2)cc1S(=O)(=O)N(C)C (stereo not given) | inconclusive: 28.2 µM [inhibitor, full curve] | 
58 | COCCCNC(=O)CSC1=Nc2ccccc2C2=NC(CCC(=O)NCc3ccccc3OC)C(=O)N12 (stereo not given) | inconclusive: 56.2 µM [inhibitor, partial curve, poor fit] | 
59 | CC(C)C(OC(=O)CN1C(=O)COc2ccccc21)C(=O)NC1CCCCC1 (stereo not given) | inactive | 
60 | COc1cccc(Nc2nnc(SCC(=O)N3CC(C)OC(C)C3)s2)c1 (stereo not given) | inconclusive: 39.8 µM [inhibitor, partial curve] | 
61 | Cc1ccc(-n2nc(C)c(C(=O)NCCCN3CCN(c4ccc(F)cc4)CC3)c2-n2cccc2)cc1 | inconclusive: 39.8 µM [inhibitor, single point] | 
62 | Cc1cnn(C(=S)NCc2ccco2)c1 | inconclusive: 50.1 µM [inhibitor, partial curve] | 
63 | O=C1NC(=Nc2cccnc2)S/C1=C\c1cccc(F)c1 | inconclusive: 0.282 µM [inhibitor, full curve, poor fit] | 
64 | CCOc1cccc(CNC(=O)c2ccc(N3CCCC3)c(NC(=O)NCc3ccc(F)cc3)c2)c1 | inconclusive: 100 µM [inhibitor, single point] | 
65 | CCOC(=O)c1c(C)[nH]c(C)c1S(=O)(=O)N1CCCC(C(=O)Nc2ccccc2OCC)C1 (stereo not given) | inactive | 
